This is one part of the list.
What was measured:
Assay in all cases: log2 fold change, soluble protein after heating vs DMSO (PISA); higher = thermal stabilisation; K562 cells, 10 uM, 30 min; active = over 0.2 and 3.5 SD of the protein, either way, in both replicates (recomputed)
[1] = compound: C1=CC=C(C=C1)[C@H](COC2=CC3=C(C=C2)NC(=O)N3)NC(=O)C4=CC=CN(C4=O)CC5=CC(=C(C=C5)F)F
Outline: (§1)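 For each measurement, 10 μM compound was applied for 30 min to K562 cells at 2×10^6 cells/mL. Aliquots were heated for 3 min across 48°C-58°C, pooled, and extracted in PBS with 0.5% NP-40 at 4°C; the supernatant after 21,000xg for 90 min was soluble protein. This was quantified by TMTpro 16plex LC-MS/MS with channel sums equalised, and thermal stability was reported relative to control samples from duplicates, on a log2 fold-change scale.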

Chains of the proteins cited; added tags and fusions are not shown. Lines headed by an entry give the natural chain unless they say otherwise; changes in a name come on top.
UniProt P38919, whole entry, looked up: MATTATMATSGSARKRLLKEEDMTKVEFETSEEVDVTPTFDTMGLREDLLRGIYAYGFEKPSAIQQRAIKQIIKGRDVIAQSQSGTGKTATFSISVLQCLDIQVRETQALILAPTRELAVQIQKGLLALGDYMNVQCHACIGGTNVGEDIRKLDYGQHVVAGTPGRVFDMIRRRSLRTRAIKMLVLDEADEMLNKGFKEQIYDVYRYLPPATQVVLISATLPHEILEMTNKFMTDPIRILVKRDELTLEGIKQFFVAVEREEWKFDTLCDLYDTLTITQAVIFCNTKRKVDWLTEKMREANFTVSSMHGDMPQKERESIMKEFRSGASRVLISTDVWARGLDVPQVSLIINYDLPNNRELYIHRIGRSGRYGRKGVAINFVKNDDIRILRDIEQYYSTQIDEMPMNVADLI
UniProt P49770: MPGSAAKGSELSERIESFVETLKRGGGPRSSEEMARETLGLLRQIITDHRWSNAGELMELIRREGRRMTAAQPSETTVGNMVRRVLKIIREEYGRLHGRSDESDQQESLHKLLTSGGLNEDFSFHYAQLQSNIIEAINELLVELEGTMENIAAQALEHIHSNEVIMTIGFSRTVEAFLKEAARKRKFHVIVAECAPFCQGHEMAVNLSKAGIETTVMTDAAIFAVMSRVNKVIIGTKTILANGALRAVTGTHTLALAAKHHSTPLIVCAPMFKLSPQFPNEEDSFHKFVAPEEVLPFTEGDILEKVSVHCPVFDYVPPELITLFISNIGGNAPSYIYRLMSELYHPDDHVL
UniProt O75822, whole entry, looked up: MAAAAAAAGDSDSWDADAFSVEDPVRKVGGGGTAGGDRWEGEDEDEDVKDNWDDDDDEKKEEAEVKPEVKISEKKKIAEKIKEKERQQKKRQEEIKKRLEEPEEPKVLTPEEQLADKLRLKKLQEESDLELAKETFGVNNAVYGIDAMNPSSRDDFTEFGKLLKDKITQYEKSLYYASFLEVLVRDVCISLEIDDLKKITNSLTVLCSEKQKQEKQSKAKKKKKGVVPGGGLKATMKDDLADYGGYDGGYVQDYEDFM
UniProt Q8NFI3: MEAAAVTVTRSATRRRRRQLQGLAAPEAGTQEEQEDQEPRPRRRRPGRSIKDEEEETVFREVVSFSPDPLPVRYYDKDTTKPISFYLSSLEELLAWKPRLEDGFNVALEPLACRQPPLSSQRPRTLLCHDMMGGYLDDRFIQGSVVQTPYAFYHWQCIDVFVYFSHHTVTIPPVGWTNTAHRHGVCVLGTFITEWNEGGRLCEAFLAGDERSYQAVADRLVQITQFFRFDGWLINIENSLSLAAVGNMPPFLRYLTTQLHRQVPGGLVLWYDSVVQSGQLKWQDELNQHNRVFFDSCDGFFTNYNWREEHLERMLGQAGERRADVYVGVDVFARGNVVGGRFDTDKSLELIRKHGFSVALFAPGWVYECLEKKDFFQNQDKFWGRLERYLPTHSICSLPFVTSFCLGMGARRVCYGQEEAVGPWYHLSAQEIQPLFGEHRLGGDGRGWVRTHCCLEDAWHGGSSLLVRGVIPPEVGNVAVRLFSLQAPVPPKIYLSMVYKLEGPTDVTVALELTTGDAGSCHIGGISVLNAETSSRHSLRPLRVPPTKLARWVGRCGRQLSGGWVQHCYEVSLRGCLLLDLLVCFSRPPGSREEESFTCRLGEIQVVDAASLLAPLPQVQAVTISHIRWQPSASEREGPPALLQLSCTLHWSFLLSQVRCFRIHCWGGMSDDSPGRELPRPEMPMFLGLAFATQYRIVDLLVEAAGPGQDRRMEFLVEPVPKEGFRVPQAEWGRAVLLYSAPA
UniProt Q32P44: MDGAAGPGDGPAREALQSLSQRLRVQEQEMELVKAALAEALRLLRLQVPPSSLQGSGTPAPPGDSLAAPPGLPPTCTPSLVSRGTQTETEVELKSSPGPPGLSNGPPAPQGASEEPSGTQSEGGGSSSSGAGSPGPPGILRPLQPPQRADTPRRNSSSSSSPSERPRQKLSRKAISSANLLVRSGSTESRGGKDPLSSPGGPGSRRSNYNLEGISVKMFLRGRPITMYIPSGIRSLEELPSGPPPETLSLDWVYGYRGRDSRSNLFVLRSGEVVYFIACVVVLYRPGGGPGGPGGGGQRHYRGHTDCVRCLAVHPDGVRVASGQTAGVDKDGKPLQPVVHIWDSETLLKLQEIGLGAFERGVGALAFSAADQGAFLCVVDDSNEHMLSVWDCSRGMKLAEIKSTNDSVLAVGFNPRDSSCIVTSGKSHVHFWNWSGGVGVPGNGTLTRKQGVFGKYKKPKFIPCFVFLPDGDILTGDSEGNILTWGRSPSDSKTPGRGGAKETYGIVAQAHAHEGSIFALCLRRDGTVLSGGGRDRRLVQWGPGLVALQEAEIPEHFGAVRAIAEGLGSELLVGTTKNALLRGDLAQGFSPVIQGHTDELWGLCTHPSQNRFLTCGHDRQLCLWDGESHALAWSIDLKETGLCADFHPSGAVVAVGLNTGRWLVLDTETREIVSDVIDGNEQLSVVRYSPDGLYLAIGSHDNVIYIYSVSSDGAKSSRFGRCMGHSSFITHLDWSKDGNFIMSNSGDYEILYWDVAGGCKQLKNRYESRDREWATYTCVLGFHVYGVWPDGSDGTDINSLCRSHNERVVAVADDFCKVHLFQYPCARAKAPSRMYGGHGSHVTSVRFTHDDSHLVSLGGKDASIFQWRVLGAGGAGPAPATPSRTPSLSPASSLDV
UniProt Q08426: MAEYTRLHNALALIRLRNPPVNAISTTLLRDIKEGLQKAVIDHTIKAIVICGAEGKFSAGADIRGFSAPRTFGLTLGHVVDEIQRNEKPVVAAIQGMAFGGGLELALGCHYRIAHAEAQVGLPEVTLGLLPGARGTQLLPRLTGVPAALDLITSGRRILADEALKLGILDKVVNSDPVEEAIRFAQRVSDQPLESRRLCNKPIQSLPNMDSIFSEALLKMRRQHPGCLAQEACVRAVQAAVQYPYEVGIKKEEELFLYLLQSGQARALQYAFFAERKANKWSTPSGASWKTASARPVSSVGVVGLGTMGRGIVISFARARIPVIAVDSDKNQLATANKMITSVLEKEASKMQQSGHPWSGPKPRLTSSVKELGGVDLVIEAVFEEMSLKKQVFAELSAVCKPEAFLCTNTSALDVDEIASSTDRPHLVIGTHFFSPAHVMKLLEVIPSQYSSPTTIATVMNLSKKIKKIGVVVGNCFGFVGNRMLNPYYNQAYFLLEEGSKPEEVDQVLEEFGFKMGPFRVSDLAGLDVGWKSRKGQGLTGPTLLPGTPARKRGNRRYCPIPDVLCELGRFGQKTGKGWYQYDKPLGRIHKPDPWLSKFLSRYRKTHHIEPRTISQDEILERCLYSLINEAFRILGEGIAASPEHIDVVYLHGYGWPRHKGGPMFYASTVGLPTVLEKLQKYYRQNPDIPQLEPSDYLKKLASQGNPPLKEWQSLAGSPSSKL
UniProt Q9BQI3, whole entry, looked up: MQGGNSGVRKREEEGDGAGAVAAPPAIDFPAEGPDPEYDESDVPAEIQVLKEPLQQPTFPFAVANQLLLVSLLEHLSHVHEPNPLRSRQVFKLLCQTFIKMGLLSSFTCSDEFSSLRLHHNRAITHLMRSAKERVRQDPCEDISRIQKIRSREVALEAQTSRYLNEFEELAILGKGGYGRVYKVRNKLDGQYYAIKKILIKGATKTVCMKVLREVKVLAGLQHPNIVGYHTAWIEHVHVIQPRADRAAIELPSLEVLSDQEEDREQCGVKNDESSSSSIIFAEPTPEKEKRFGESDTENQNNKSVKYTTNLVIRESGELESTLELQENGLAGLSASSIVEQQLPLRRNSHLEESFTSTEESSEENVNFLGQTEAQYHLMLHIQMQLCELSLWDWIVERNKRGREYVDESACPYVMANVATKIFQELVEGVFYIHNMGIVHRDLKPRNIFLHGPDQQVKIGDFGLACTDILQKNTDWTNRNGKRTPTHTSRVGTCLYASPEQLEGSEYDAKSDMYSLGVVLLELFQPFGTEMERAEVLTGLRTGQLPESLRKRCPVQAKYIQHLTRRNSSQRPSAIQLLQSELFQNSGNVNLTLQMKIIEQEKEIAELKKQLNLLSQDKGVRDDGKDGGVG
UniProt Q9GZT9: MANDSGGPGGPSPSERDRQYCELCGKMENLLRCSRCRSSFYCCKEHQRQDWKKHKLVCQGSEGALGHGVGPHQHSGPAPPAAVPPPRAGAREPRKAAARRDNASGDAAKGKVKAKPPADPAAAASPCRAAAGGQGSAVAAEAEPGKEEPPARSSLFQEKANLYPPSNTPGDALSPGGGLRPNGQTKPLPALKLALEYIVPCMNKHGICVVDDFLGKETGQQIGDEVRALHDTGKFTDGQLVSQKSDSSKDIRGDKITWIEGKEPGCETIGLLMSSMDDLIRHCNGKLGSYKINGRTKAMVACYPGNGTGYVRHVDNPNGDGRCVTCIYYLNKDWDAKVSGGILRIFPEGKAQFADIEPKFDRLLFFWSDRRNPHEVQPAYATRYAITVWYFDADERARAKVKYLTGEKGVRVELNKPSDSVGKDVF

[2] = compound: CC1=C(SC2=C1C(=N[C@H](C3=NN=C(N32)C)CC(=O)N)C4=CC=C(C=C4)Cl)C
Outline: as §1

[3] = compound: CC1=C2C(=CC=C1)N=C(N(C2=O)C3=CC=CC=C3C)CN4C=NC5=C(N=CN=C54)N
Outline: as §1

[4] = compound: Cc1sc2c(c1C)C(c1ccc(Cl)cc1)=N[C@@H](CC(=O)OC(C)(C)C)c1nnc(C)n1-2
Outline: as §1

[5] = compound: c1ccc([C@@H]2C[C@H]2NC2CCNCC2)cc1
Outline: as §1

Measured: log2 fold change

EIF4A3 (UniProt P38919)
inactive: [1] -0.008 | [2] 0.083 | [3] 0.036 | [4] 0.02 | [5] -0.022

EIF2B2 (UniProt P49770)
inactive: [1] 0.015 | [2] -0.001 | [3] -0.038 | [4] 0.006 | [5] -0.025

EIF3J (UniProt O75822)
inactive: [1] -0.034 | [2] 0.025 | [3] -0.004 | [4] -0.041 | [5] -0.035

ENGASE (UniProt Q8NFI3)
inactive: [1] -0.005 | [2] 0.028 | [3] 0.135 | [4] -0.004 | [5] -0.072

EML3 isoform 2 (UniProt Q32P44)
inactive: [1] -0.086 | [2] -0.016 | [3] 0.04 | [4] 0.038 | [5] 0.011

EHHADH (UniProt Q08426)
inactive: [1] -0.058 | [2] 0.031 | [3] 0.025 | [4] -0.02 | [5] -0.031

2 neighbouring entries out of the list so far, quoted:
EIF3J (UniProt O75822)
inactive: [1] -0.034 | [2] 0.025 | [3] -0.004 | [4] -0.041 | [5] -0.035

ENGASE (UniProt Q8NFI3)
inactive: [1] -0.005 | [2] 0.028 | [3] 0.135 | [4] -0.004 | [5] -0.072

Additional results:

EIF2AK1 (UniProt Q9BQI3)
inactive: [1] 0.025 | [2] -0.036 | [3] -0.051 | [4] 0.025 | [5] 0.018

EGLN1 (UniProt Q9GZT9)
inactive: [1] 0.055 | [2] 0.06 | [3] 0.013 | [4] 0.008 | [5] 0.019

ELOF1 (UniProt P60002)
inactive: [1] -0.097 | [2] -0.166 | [3] -0.082 | [4] 0.028 | [5] 0.003
